Measured data: PubChem BioAssay AID686943 (Drosophila RNAi Screening Center, 2013)

Test: 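Knockdowns that increase or decrease active ERK after insulin receptor stimulation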 (primary screen)
System: Drosophila S2R+ haemocyte-like cells expressing YFP-tagged ERK (Rolled)
Reagent: long dsRNA against Drosophila genes
Conditions: insulin stimulation versus unstimulated cells; dose and duration not given
Read-out: 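Antibody staining for doubly phosphorylated ERK divided by ERK-YFP signal, as plate z-scores, in insulin-treated and untreated cells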
Reading the numbers: replicate 1, z-score of dpERK with insulin and replicate 2, z-score of dpERK with insulin: higher = more active ERK per ERK-YFP after insulin; replicate 1, z-score of dpERK under basal conditions: higher = more basal active ERK per ERK-YFP
In all, the deposit lists about 23,000 reagents; shown is a random part of those that have a named target and a result. 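Extra replicates exist only for a retested subset of genes; insulin dose and duration not given; both raised and lowered dpERK matter.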 The numbers tell different reagents against one gene apart. Further read-outs or replicates are left out here. Not given: the amount of reagent, the time to read-out.

| gene | reagent | replicate 1, z-score of dpERK with insulin | replicate 2, z-score of dpERK with insulin | replicate 1, z-score of dpERK under basal conditions |
| --- | --- | --- | --- | --- |
| CG7768 | 1 | -0.53 | 0.23 | -0.65 |
| CG42237 | 1 | 0.87 | 0.52 | 0.11 |
| CG33181 | 1 | -0.23 | 0.17 | 0.29 |
| CG33181 | 2 | -1.2 | 0.12 | -0.32 |
| Mpv17 (Mitochondrial inner membrane protein MPV17) | 1 | 0.73 | 0.22 | -0.28 |
| Taf3 (TBP-associated factor 3) | 1 | 1.21 | 1.53 | -1.94 |
| speck | 1 | -0.58 | -0.64 | -0.28 |
| CG14391 | 1 | -0.12 | -0.24 | -0.15 |
| Gr63a (Gustatory receptor 63a) | 1 | 1.07 | 0.21 | 0.74 |
| CG2641 | 1 | 0.35 | 1.74 | 0.73 |
| CG10918 | 1 | -0.01 | 0.42 | 0.39 |
| CG17377 | 1 | 0.94 | -0.34 | -0.08 |
| CG17377 | 2 | -0.14 | 0.29 | 0.16 |
| CG17377 | 3 | -3.56 | -0.23 | 0.81 |

An excerpt from above, limited to “replicate 1, z-score of dpERK with insulin”:
Gr63a (Gustatory receptor 63a)	1.07
CG2641	0.35

Further records:
| gene | reagent | replicate 1, z-score of dpERK with insulin | replicate 2, z-score of dpERK with insulin | replicate 1, z-score of dpERK under basal conditions |
| --- | --- | --- | --- | --- |
| Mur82C (Mucin related 82C) | 1 | -3.76 | -0.98 | -0.89 |
| Mur82C (Mucin related 82C) | 2 | 1.11 | -0.09 | 1.68 |
| Hpf1 (Histone PARylation factor 1) | 1 | -0.14 | 0.27 | -0.21 |
| CG8152 | 1 | -0.7 | 0.18 | -0.02 |
| ATPsynB (ATP synthase, subunit B) | 1 | -0.89 | 0.71 | -1.51 |
| e (ebony) | 1 | -0.43 | -0.22 | 0.02 |
| CG13295 | 1 | 0.5 | 0.23 | 1.17 |
| CG9676 | 1 | 0.14 | 0.43 | 0.88 |
| CG17752 | 1 | 0.69 | 0.67 | 1.39 |
